Source: PubChem BioAssay AID2685 (National Center for Advancing Translational Sciences (NCATS), 2010)
The other results are listed elsewhere or left out. Further columns of the screen follow, without active or inactive calls. The list favours compounds with an active or inconclusive main result. Potencies come from curve fits of mixed quality, noted in brackets.

Experiment: qHTS Assay for Lipid Storage Modulators in Drosophila S3 Cells;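 as to cell number change: cells counted by Cell Tracker Red CMTPX staining in the red channel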
Conditions: BODIPY lipid droplet fluorescence, 18-24 h; for cell number change: measured here: cell count max response, cells fed with added oleic acid
Method in brief: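 Drosophila S3 cells loaded with oleic acid (400 uM, as added) and compounds at several concentrations; lipid droplets imaged by 488-nm laser-scanning cytometry, 500–530 nm intensity and object ratio to cell channel. Percent activity normalized to 20 uM Triacsin C.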

[1] = measured here: lipid fluorescence (Fed channel) AC50, cells fed with added oleic acid
[2] = measured here: cell number channel AC50, cells fed with added oleic acid

Row | Compound | cell number change | AC50 [1] | AC50 [2]
1 | O=C(COC(=O)c1cc[n+]([O-])cc1)NCCc1ccc(Cl)cc1Cl | -2.2% | 0.103 µM [falling, full curve, poor fit] | 
2 | CC(=O)N/C(=C\c1ccccc1)C(=O)OC(C)C(=O)c1ccccc1 (stereo not drawn) | 38.4% |  | 18.4 µM [rising, single point]
3 | O=C(O)COc1ccccc1/C=C1\SC(=S)N(/N=C/c2ccccc2O)C1=O | -8.12% |  | 
4 | N/C(=N\N=C\c1cccc(O)c1)c1nonc1N | -38.6% |  | 10.3 µM [falling, partial curve]
5 | COc1cc(N2CCOCC2)ccc1C=C(C#N)C#N | -2.17% | 16.4 µM [falling, single point] | 
6 | CCC(=O)N1CCc2cc(S(=O)(=O)NC(Cc3ccccc3)C(=O)Nc3nccs3)ccc21 (stereo not drawn) | 32.6% | 0.184 µM [rising, full curve, poor fit] | 4.11 µM [rising, partial curve, poor fit]
7 | Cc1cc(C)c2nc(N3CCN(C(=O)c4cccs4)CC3)sc2c1 | 46.6% |  | 14.6 µM [rising, single point]
8 | Cc1cccc2c(=O)cc(C)n(CC(N)=O)c12 |  | 0.13 µM [falling, full curve, poor fit] | 
9 | CC1CC(C)CN(S(=O)(=O)N2CCCC(C(=O)NC3CCCCC3)C2)C1 (stereo not drawn) |  | 2.91 µM [rising, single point] | 
10 | Fc1ccc2c(c1)C(c1ccc(N3CCOCC3)cc1)=NNC(c1cccs1)=N2 | 35.6% | 3.26 µM [rising, full curve] | 3.66 µM [rising, partial curve, poor fit]
11 | Cc1cccc(Nc2ncnc(N)c2[N+](=O)[O-])n1 | 47.1% | 18.4 µM [rising, partial curve] | 23.1 µM [rising, single point]
12 | O=C(Nc1cccc2nsnc12)c1ccc(-c2cccc(Cl)c2)o1 | 16.2% |  | 
13 | Cc1cc(SCC(=O)c2cc(C)n(C)c2C)nc2ccccc12 | -2.83% |  | 
14 | COc1ccc(C(CC(=O)O)NC(=O)Cc2ccccc2)cc1 (stereo not drawn) | -12.9% | 29.1 µM [falling, single point] | 
15 | NC(=O)NC(CC(=O)NNC(=O)c1ccccn1)c1ccccc1Cl (stereo not drawn) | -12% |  | 
16 | CN(C)CCCNS(=O)(=O)c1ccc(NC2CCCCCC2)c([N+](=O)[O-])c1 | 8.97% | 6.51 µM [rising, single point] | 
17 | COc1ccc(NC(=O)CN(C)S(=O)(=O)c2ccc3[nH]c(=O)oc3c2)cc1 | 2.97% | 29.1 µM [rising, single point] | 
18 | Cc1ccc(NC(=S)NC(=O)C2CCCC2)cc1C | 2.9% | 29.1 µM [rising, partial curve] | 
19 | O=S(=O)(NCCc1ccc(Cl)cc1)c1cccc2cccnc12 | 19.9% |  | 
20 | O=C(CN1C(=O)COc2ccccc21)N(CCCN1CCOCC1)CC1CC=CCC1 (stereo not drawn) | -16.7% | 0.146 µM [rising, full curve, poor fit] | 
21 | COC(=O)c1ccc(/C=N/NC(=O)C(=O)N2CCCCCC2)cc1 | 23.8% |  | 

Row | Compound | cell number change | AC50 [1] | AC50 [2]
22 | O=C(CS(=O)(=O)Cc1ccccc1)N1CCN(c2cccc(C(F)(F)F)c2)CC1 | -15.8% |  | 
23 | CCC(C)[C@H]1COCCS(=O)(=O)N1Cc1ccccc1 (stereo partly drawn) | 4.79% |  | 
24 | O=c1c2c3nc4ccccc4nc3n(/N=C/c3ccco3)c2ncn1CCC1=CCCCC1 | -20.1% |  | 0.291 µM [falling, partial curve]
25 | C=CCN(c1ccccc1)S(=O)(=O)c1ccc2c(c1)NC(=O)C(C)S2 (stereo not drawn) |  | 0.00461 µM [falling, full curve, poor fit] | 
26 | Cc1ccc(C)c(NC(=O)CN(C)C(=O)c2ccccc2Cc2ccccc2)c1 |  | 2.06 µM [falling, single point] | 
27 | COc1ccc(C2CC(C(F)(F)F)n3ncc(C(=O)NCc4cccnc4)c3N2)cc1OC (stereo not drawn) | 164% | 0.58 µM [rising, single point] | 
28 | CCCCCCCCCCCC(=O)c1c(O)cccc1O | -4.21% | 0.0731 µM [falling, full curve, poor fit] | 0.092 µM [falling, full curve, poor fit]
29 | O=C(COc1ccc(Cl)cc1)NCc1cn2cc(Cl)ccc2n1 |  | 6.51 µM [falling, single point] | 6.51 µM [falling, single point]
30 | Cc1ccc(N/N=C2\CCS(=O)(=O)c3sccc32)cc1 | -27.7% | 2.59 µM [falling, full curve, poor fit] | 
31 | COc1ccc(N(CC(=O)NC2CCCC2)C(=O)c2ccc(C)s2)cc1OC | 16.7% | 29.1 µM [rising, single point] | 
32 | COC(=O)c1cccc(NC(N)=S)c1 |  | 0.58 µM [falling, single point] | 
33 | CCCCOC(=O)/C=C/c1c(C)[nH]c(=O)[nH]c1=O |  | 2.06 µM [rising, full curve, poor fit] | 
34 | CC(=O)c1ccc(N(C(=O)c2csnn2)C(C(=O)NC2CCCC2)c2ccccc2)cc1 (stereo not drawn) | 5.71% | 29.1 µM [rising, single point] | 
35 | CN(C)CCCCNCCCNC(=O)/C=N\O | -6.47% | 6.51 µM [falling, single point] | 
36 | Cc1ccc(S(=O)(=O)c2nc(Nc3ccccc3)sc2Cl)cc1 | -24.1% | 18.4 µM [falling, partial curve, poor fit] | 
37 | CC(CN1CCCCC1)OC(=O)C(C)(c1ccccc1)c1ccccc1 (stereo not drawn) | -9.65% | 0.731 µM [falling, single point] | 
38 | Cc1ccc(C)c(NC(=O)CCC(=O)N/N=C/c2cccnc2)c1 | 19.3% | 29.1 µM [rising, single point] | 
39 | Cn1c(=O)c(C(=O)CCl)c(N)n(Cc2ccccc2)c1=O | 3.46% | 0.461 µM [rising, full curve] | 
40 | O=C(NCCCN1CCCC1=O)c1ccc(S(=O)(=O)Nc2ccccc2)cc1 | 20.6% | 0.461 µM [rising, full curve] | 
41 | COc1ccc(N2CCN(CC(=O)c3ccc(Cl)cc3)CC2)cc1 |  | 0.13 µM [falling, full curve, poor fit] | 
42 | Cc1cc(C)cc(OCC(=O)NC2CCCc3ccccc32)c1 (stereo not drawn) | -25.7% | 8.2 µM [falling, partial curve, poor fit] | 

Gathered by group: the compounds so far containing a COOH group (2)
Row | Compound | cell number change | AC50 [1] | AC50 [2]
3 | O=C(O)COc1ccccc1/C=C1\SC(=S)N(/N=C/c2ccccc2O)C1=O | -8.12% |  | 
14 | COc1ccc(C(CC(=O)O)NC(=O)Cc2ccccc2)cc1 (stereo not drawn) | -12.9% | 29.1 µM [falling, single point] | 

(next part)

Row | Compound | cell number change | AC50 [1] | AC50 [2]
43 | Cc1ccc(NC(=O)C(Nc2ccccc2)c2ccccc2)cc1 (stereo not drawn) | 10.4% | 0.58 µM [falling, single point] | 
44 | CCN(CC(=O)Nc1c(F)cccc1F)C(=O)CSCC(=O)Nc1cccc(C)c1 |  | 4.11 µM [falling, single point] | 
45 | O=C(/C=C/c1ccc(Cl)c([N+](=O)[O-])c1)Nc1cccc(NC(=O)c2ccco2)c1 | 11.7% |  | 
46 | COc1ccc(C(=O)N2CCN(c3ncccn3)CC2)cc1[N+](=O)[O-] | -4.4% | 29.1 µM [rising, single point] | 
47 | Cc1cc(C(=O)NN)n[nH]1 | 31.4% | 0.291 µM [rising, full curve] | 29.1 µM [rising, single point]
48 | CCCCc1nc2cc(Cl)ccc2o1 | -11.3% | 29.1 µM [falling, single point] | 
49 | Cc1c[n+](CC(=O)c2ccccc2)cs1 | 5.84% | 6.51 µM [falling, single point] | 
50 | COc1ccc(-c2nnc(-c3cc4c(ccc5ccccc54)oc3=O)o2)cc1 | 52.4% | 13 µM [rising, partial curve] | 0.58 µM [rising, partial curve, poor fit]
51 | O=C(O)c1cccc(-n2cnnn2)c1 | -1.65% |  | 
52 | COc1ccc(NS(=O)(=O)c2cc(NC(=O)c3ccc(F)cc3)ccc2OC)cc1 | 33.3% | 3.66 µM [falling, full curve] | 1.64 µM [rising, partial curve]
53 | COc1ccc(NC(=O)CN(C)C(=O)C2CC(=O)N(c3cccc4ccccc34)C2)cc1 (stereo not drawn) | -4.79% |  | 
54 | O=C(c1cc2cc(Cl)ccc2o1)N1CCCC1 | -1.68% | 0.00517 µM [rising, full curve, poor fit] | 
55 | Cc1ccc(N(Cc2ccccc2)C(=O)c2ccc(F)c(S(=O)(=O)N3CCOCC3)c2)cc1 |  | 0.411 µM [rising, single point] | 
56 | COc1ccc(NC(=O)C2CCCN2S(=O)(=O)c2ccc3c(c2)CC(C)N3C(C)=O)cc1OC (stereo not drawn) | -13.5% |  | 
57 | CCOc1cc(C(=O)Nc2cc3c(cc2N2CCCC2)n(C)c(=O)n3C)cc(OCC)c1OCC |  | 1.3 µM [rising, full curve] | 3.66 µM [rising, partial curve]
58 | CCOC(=O)c1c(NC(=O)C2c3ccccc3Oc3ccccc32)sc(C(N)=O)c1C |  | 5.8 µM [rising, single point] | 6.51 µM [rising, single point]
59 | O=C(c1cc(-c2cccc(Cl)c2)on1)N1CCN(c2ccccc2)CC1 | 22.9% | 25.9 µM [rising, single point] | 
60 | O=S(=O)(c1ccccc1)N(F)S(=O)(=O)c1ccccc1 | -10.5% | 0.461 µM [falling, full curve, poor fit] | 0.651 µM [falling, single point]
61 | CSc1ncc(CN2CCc3c([nH]c4ccccc34)C2c2cccc(O)c2)cn1 (stereo not drawn) | -33.8% | 3.26 µM [falling, partial curve] | 29.1 µM [falling, single point]
62 | Cn1c(C(=O)c2ccncc2)cc2ccccc21 | 60.6% | 0.00461 µM [falling, full curve, poor fit] | 16.4 µM [rising, single point]
